{
  "source": "paper PMC9715504",
  "about": "“The blood-to-plasma ratio and predicted GABAA-binding affinity of designer benzodiazepines” (Forensic Toxicology, 2022)",
  "origin": "cited, not measured here",
  "details": "cited from earlier work",
  "note": "Like-named read-outs stand apart in the source and are kept apart here.",
  "data": [
    {"smiles": "CN1C(=O)C(O)N=C(c2ccccc2)c2cc(Cl)ccc21", "note": "(centres unmarked) [temazepam]", "values": [
      {"measurement": "blood-to-plasma ratio", "setting": "calculated from literature whole blood and plasma concentrations (125-I radioimmunoassay)", "value": 0.49},
      {"measurement": "blood-to-plasma ratio", "value": 0.62}
    ]}
  ]
}
